Patent US20100210536A1, “USE OF LEPTIN (22-56 ) AS A THERAPEUTIC AGENT” (priority 2007, published 2010)
Part of at least one peptide drawing is inferred or uncertain, most often the ends. Where no end group is shown, it is not given here.

How the values were obtained:
[1] = tested on: hepatitis B virus (HBV) ayw strain; test: HBV replication assay in HepG2-2.2.15 cells (TaqMan PCR of secreted HBV DNA); type: cell-based; conditions: test peptide 10 micrograms per ml; six days; HBV DNA in supernatant
[2] = tested on: HCMV strain AD169; test: HCMV plaque reduction assay in MRC-5 cells; type: cell-based; conditions: test peptide 10 micrograms per ml; 7-10 days

“VPIQKVQDDTKTLIKTIVTRINDISHTQSVSSKQK-OH [Leptin (22-56)]” was tested, and the “% inhibition of HBV replication in HEP G2 cells” value [1] was 0.0% and the “% plaque reduction” value [2] was 1.4%.
